# Assay results

From PubChem BioAssay record AID1159506 (NCATS, 2015).

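Genome-wide siRNA knockdown in TC32 Ewing sarcoma cells, comparing luciferase light from an NR0B1-promoter reporter with a CMV-promoter reporter 48 hours after transfection.
Each siRNA was applied at 20 nM.
A z-score of the log NR0B1-over-CMV signal, less the median of siRNAs with the same seed; more negative means a stronger specific loss of the NR0B1 reporter.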

The strongest results of the screen are mostly left out here.
Sequences are the guide (antisense) strand, without overhang.

Sequence,gene,seed-corrected z-score
UAGUAGUUCACCGAAUUUC,LRRIQ4,-0.7221
UCAAUGAAAAUGUUAGUAU,SSX2,-0.6042
UAGCUUAGUAUCCCAUUGC,PCDHAC1,-0.5284
AUACUGAUAGUAUCUUCGG,CHURC1,0.125
UCAGUGUCAAUCAUCGCAG,TAB1,0.1397
AUAGGAUUGAGGAGCACGG,NDST1,0.2458
AUACUGGUAAGUGAGGAUG,CECR5,0.3159
UACACGACCAGAGUUGCUC,FBXO42,0.1641
UUAUAUAAUAGUUUGCAGA,NOXRED1,0.3904
AAACACGUAGCCUCUGUCU,IP6K1,-0.3956
UUUCGGAAGAGGAUCCUAG,APOOL,0.7254
UACAUCACCAACGCAGUCC,THBS1,0.02806
AUCGUUAUCAUUUUCUGGG,NBPF11,-0.3666
ACAGCAAACAGGAAUGGGC,AGT,0.2608
UAAGCGAUGGGUUUUGCGG,PRR20A,0.7234
AAUUUGUCCAGUUUUCGUG,CDC16,-0.4767
UGCUUGUUUACUCUCUGCC,MIF4GD,0.4707
UCAUGUUGAUUUCUAAUCG,MLKL,-0.2182
UGUGAUUUAACACCUGAAU,FAM74A3,1.467
UAUUCAAUACCAAGUAGUG,SLC25A27,-0.3597
UCACAUAGCAGUAGACUCG,TMEM161A,0.6835
UUUAGGCAAACCAAAGCAC,MARVELD2,0.9719
UUAGGUAUGAAUGUAUUCU,LOC727961,0.4202
UUAUUGGGUAUCACAGAGC,TK2,0.13
UUAAUGUCAUUAAUGGAUC,MCPH1,0.3138
ACAGUUGUAGUUGAGGUUC,FBXO39,-0.1813
UAAAUGAUUGCGUCCAUAG,ATOH7,0.3999
AUCUUGAUCCCUUUUGCCC,LRRC71,0.6753
UUCUGGAUGAUCUCAUAAC,COL6A4P1,0.09007
UUUAGUGUACGAAAUAAAC,KTI12,0.1876
UCACAUACUGGAUAUACCA,MLXIPL,1.098
UCUCCAUCAACGGCGAUGU,LOC390956,-0.4032
UAUGUGAGCCCAUCAGUGC,SPINK4,-0.2885
UUGCUGAUCAGAGCUUGGU,ARHGAP23,-0.1661
UUCUGAAUCUCCCUGAUCC,ENKD1,-0.3108
UCCUCGUUGGGAAAGACCU,UBE2S,0.8989
UUCUUGUAACAGGUAAUCC,PCLO,-0.07889
AAUGUUGUCAUAGCUCCGG,LGI2,-0.8755
UCUUCGUGGAUCUCGAUGC,PITPNM3,0.5477
UCUGUUUUCAGGCACACCC,HUS1B,0.8168
UUCGUGCUAAGUCAGCAUC,NCOA7,0.3019
AAUGGUCUAAGACAGGUAC,ACSS3,-0.1932
UUUAUUUGGCGGUCUGUCU,KLF1,-1.838
UACUUGGGUUGAUAGGAGC,WISP1,-0.01581
UUCAUCACAAGUCAUGAGU,KRTAP8-1,1.308
UAAGCUCGAUUGACUGUGG,OR52L1,1.622
UCGAGUCUCAGUGAACUUG,PPP1R9A,-0.3645
AAGGGUGACACCUCUGAUC,SLC6A12,-0.3236
UUCUAAACUACGAACUUCC,CDON,-0.4116
AAGGCAACAGGUAAUGACC,C11orf42,0.1831
UUCUGUAUACAUUCUGAAG,ACYP2,-0.3645
AACCGUCUCAUCUUCUACC,EZH1,0.05773
UAAUUACCACGUCGAUUUC,DERA,-0.07304
AUUCUCGCCAUCGAUGCUC,PDLIM7,-0.09192
UUGAAGUAAUCUUUUGUUG,LOC643962,2.611
UCUGGGAUGACCUUUUGCC,CAPN5,0.3478
UGAUAGACUGUUCUUGUCC,FAM135B,-0.05726
UAACGUGAGUUCCAUAUCC,ITLN2,-0.2799
UAAAGGCAGAUGUUGGACU,ITGAX,-0.4278
UCAUGGACAUUUCUUCGCC,POMT1,0.1187
UCUUUGAUGAAAGGUAGCC,EIF3B,1.751
UUGUUUCACAUUACAGACC,MARCKSL1,-1.101

Some entries from above, unchanged:

Sequence,gene,seed-corrected z-score
UUGAAGUAAUCUUUUGUUG,LOC643962,2.611
AAGGGUGACACCUCUGAUC,SLC6A12,-0.3236
UAAGCGAUGGGUUUUGCGG,PRR20A,0.7234
UCACAUACUGGAUAUACCA,MLXIPL,1.098